In PubChem BioAssay AID493014 (National Center for Advancing Translational Sciences (NCATS), 2011):
In all, about 340,000 compounds went through this assay and about 170 (0.05%) were called active. This list was built around the results that the source calls inconclusive (neither active nor inactive); the mix of calls is not that of the screen. Calls come from the whole dose curve; as a rule, active = well fitted inhibition curve with a large enough effect in the signal ratio, with a control signal flat (not every such curve was filed as active); inconclusive = small, poorly fitted or top-dose-only effect, or effect the other way, or a change in a side signal; inactive = flat fitted curve, though single readings scatter; the % refers to the signal ratio. A potency beside an inconclusive call is a rough fit, not a confirmed value.

Assay: qHTS Assay to Find Inhibitors of Chronic Active B-Cell Receptor Signaling;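 for activity change, negative = inhibition: plate controls were basal doxycycline-induced cells for no effect and cells given 10 µM MG132 for full effect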
Conditions: ABC-DLBCL IkBa-CBG/CBR reporter, luminescence ratio (green luciferase fused to IkBa over red control in TMD8 lymphoma cells), 4 h; activity change, negative = inhibition: at 46.1 µM (top of the series) unless noted
Procedure, shortened: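 Doxycycline induced both beetle luciferases in TMD8 lymphoma cells; IKK-driven degradation limits the IkappaBalpha-fused green signal, while red luminescence normalises for cell number and nonspecific effects. Compounds tested up to 46 uM, 4 hrs.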
Potency is the fitted concentration of half-maximal effect.

SMILES	activity change, negative = inhibition	Potency
COc1ccc(-c2cn[nH]c2N)cc1	inconclusive: -2.47%	
Cc1nnc(SCCC#N)n(CCC#N)c1=O	inconclusive: 8.99%	
Cn1c2c(c3ccccc31)CC/C2=N\O	inconclusive: -23.1%	
O=C1CCCN1CC(CN1CCOCC1)Sc1nc2ccccc2c(=O)n1-c1ccccc1 (stereo not drawn)	inconclusive: -18.5%	
COc1ccc(NC2=NCC(Cc3ccc(Br)cc3)S2)cc1 (stereo not drawn)		inconclusive: 25.9 µM [falling, partial curve, poor fit]
Cc1c(NC(=O)CCCN2C(=O)c3cccc4cccc(c34)C2=O)c(=O)n(-c2ccccc2)n1C		inconclusive: 10 µM [rising, partial curve, poor fit]
COc1cc(-c2noc(-c3ccco3)n2)cc(OC)c1OC	inconclusive: 5.86%	
C=CCn1c(NCc2ccccc2OC)nc2ccccc21	inconclusive: -14.9%	
N#Cc1ccsc1NC(=O)CN1CCN(c2ccccc2)CC1	inconclusive: 12.3%	
C=CCC(C(=O)Oc1c(C(C)(C)C)cc(C)cc1C(C)(C)C)c1ccccc1 (stereo not drawn)	inactive: 4.78%	
O=C(O)CC(c1cccc([N+](=O)[O-])c1)N1Cc2ccccc2C1=O (stereo not drawn)	inconclusive: 12.1%	
O=C(CCC(=O)N1CCN(c2cccc(Cl)c2)CC1)c1cccs1	inactive: 1.12%	
Nc1ccc(-n2nncc2-c2ccc(Cl)cc2)cc1		inconclusive: 0.92 µM [falling, full curve, poor fit]
O=C(Cc1ccc([N+](=O)[O-])cc1)N1N=C(C2CC2)CC1(O)C(F)(F)F (stereo not drawn)	inconclusive: 18.5%	
Cc1cc2nc(-c3ccc(NC(=O)C(C)C)cc3)oc2cc1C	inconclusive: 14.6%	
CC(C)Cc1nc(Nc2ccc(S(=O)(=O)N3CCCC3)cc2)c2nnn(Cc3ccccc3)c2n1		inconclusive: 1.64 µM [rising, partial curve, poor fit]
CCCCN(CC)CCCNC(=O)c1cc2c(=O)[nH]c3ccccc3c2s1	inactive: 1.11%	
COc1cccc(NC(=O)CSc2nnc(-c3ccoc3C)n2-c2ccccc2)c1		inconclusive: 5.8 µM [rising, full curve]
Cc1ccc(C2CC(=O)C=C(NCC(C)C)C2)cc1 (stereo not drawn)	inactive: 0.881%	
COC(=O)c1c(C)oc2ccc(NS(=O)(=O)c3cc(OC)ccc3OC)cc12	inconclusive: -1.51%	
O=C(NCCCCc1ccccc1)c1cccc(Br)c1		inconclusive: 11.2 µM [falling, partial curve]

SMILES	activity change, negative = inhibition	Potency
CN(C)CCCn1c(=O)n(CCc2ccccc2)c(=O)c2c3c(sc21)CCCCC3	inactive: 0.747%	
COc1cc(OC)c(OC)cc1/C=N/NC(=O)c1ccc(=O)n(C)c1	inactive: -9.19%	
CC(=O)Nc1ccc(S(=O)(=O)n2cnc3ccccc32)cc1	inconclusive: -1.01%	
O=C(CC(C(=O)NCc1ccccc1)c1nc2ccccc2c(=O)[nH]1)NCc1ccccc1 (stereo not drawn)	inconclusive: 13.8%	
Cc1nonc1NC(=O)CSc1ccc(-c2ccccc2)nn1	inconclusive: 5.32%	
O=C(c1cccs1)N1N=C(c2ccccc2)CC1c1ccc(O)cc1 (stereo not drawn)	inconclusive: -1.11%	
Cc1cc(C)n(-c2ccc(NC(=O)C3CCCCN3C(=O)c3ccoc3C)cc2)n1 (stereo not drawn)	inactive: 0.306%	
CCc1ccc2oc(C(=O)NCc3ccc(S(N)(=O)=O)cc3)c(C)c2c1	inactive: -2.77%	
Cc1cc(C)c(NC(=S)NC(=O)c2ccc(-c3ccccc3)cc2)c(C)c1	inactive: 2.64%	
Nc1nonc1-n1nnc(C(=O)N/N=C/c2ccc(OCc3ccc(F)cc3)cc2)c1COc1ccccc1	inconclusive: 4.49%	
O=c1c2ccccc2[nH]c(=S)n1CCN1CCc2ccccc2C1	inconclusive: -6.83%	
CCOc1ccccc1OCCCOc1ccc(C)cc1Br	inconclusive: 11.2%	
CC(C)(C)NC(=O)NC(=O)COC(=O)C1CC(=O)N(Cc2ccccc2)C1 (stereo not drawn)	inconclusive: 1.94%	
COc1ccc(-c2nnc(SC(C)C(=O)Nc3nccs3)n2-c2ccccc2)cc1OC (stereo not drawn)		inconclusive: 2.31 µM [rising, full curve, poor fit]
Cc1cc(NC(=O)c2c(F)c(F)c(F)c(F)c2F)no1	inconclusive: 1.16%	
CC(C)(C)c1ccc(C(=O)NNc2ccc(F)cc2F)cc1	inactive: -1.97%	
COc1ccc(CNC(=O)Cn2ncn3c(cc4ccccc43)c2=O)cc1	inactive: 0.528%	
O=C(COc1ccc(Cl)cc1Cl)NNC(=S)NC(=O)c1ccco1	inconclusive: 10.2%	
CCCCc1ccc(Nc2nc(CCC)cc(=O)[nH]2)cc1	inconclusive: -1.61%	
Cc1cc(C(C)(C)CC(C)(C)C)ccc1OCCOCC[N+](C)(C)Cc1ccccc1	inconclusive: -14.5%	
O=C1/C(=C/c2ccc([N+](=O)[O-])cc2)C=C(c2ccccc2)N1c1ccccc1	inactive: 0.139%	

Fetched by structure from the list above, 4 records:
SMILES	activity change, negative = inhibition	Potency
CCCCc1ccc(Nc2nc(CCC)cc(=O)[nH]2)cc1	inconclusive: -1.61%	
Cc1nonc1NC(=O)CSc1ccc(-c2ccccc2)nn1	inconclusive: 5.32%	
CC(=O)Nc1ccc(S(=O)(=O)n2cnc3ccccc32)cc1	inconclusive: -1.01%	
O=C1/C(=C/c2ccc([N+](=O)[O-])cc2)C=C(c2ccccc2)N1c1ccccc1	inactive: 0.139%	

(further entries)

SMILES	activity change, negative = inhibition	Potency
CC(C)(C)NC(=O)C(c1ccco1)N(C(=O)Cn1nnc(-c2ccc(F)cc2)n1)c1ccccc1F (stereo not drawn)	inconclusive: 1.9%	
O=C(Nc1ccc(S(=O)(=O)N2CCCCC2)cc1)c1ccc(F)cc1	inconclusive: -1.33%	
O=c1oc2cc(OCc3ccc(F)cc3F)ccc2cc1-c1ccccn1	inactive: 6.44%	
CCOC(=O)C1CCN(C(=O)c2ccc3c(=O)n4nc(Nc5cc(C)ccc5C)sc4nc3c2)CC1		inconclusive: 14.1 µM [falling, partial curve, poor fit]
COc1ccc2nc(C)cc(Nc3ccccc3O)c2c1	inconclusive: 12.7%	
COC(=O)c1ccccc1NC(=O)CSc1nnc(-c2cccnc2)o1		inconclusive: 10 µM [falling, partial curve]
CC1CCN(C(=O)c2ccc(-c3ccccc3Cl)o2)CC1		inconclusive: 16.4 µM [falling, single point]
Cc1nn(Cc2c(F)c(F)c(F)c(F)c2F)c(C)c1NC(=O)c1ccc(COc2ccccc2Cl)o1	inconclusive: 10.4%	
O=C(NCc1ccco1)C(=O)c1cn(CC(=O)N2CCCCC2)c2ccccc12		inconclusive: 22.4 µM [falling, single point]
CCCCN1C(=O)N(C)C2C1N(C)C(=O)N2CCCC (stereo not drawn)	inconclusive: -7%	
Cc1cccc(CN2CCc3c([nH]c4ccccc34)C2)c1	inactive: 2.83%	
CCC[N+]1(CC#CCC(c2ccccc2)c2ccccc2)CCCCC1	inconclusive: -9.09%	
O=C1c2ccc(-c3ccc4c(c3)C(=O)N(CCO)C4=O)cc2C(=O)N1CCO	inconclusive: 1.04%	
Fc1cccc(CSc2nc3ccncc3[nH]2)c1	inactive: -1.75%	
Cc1cccc(N=C2NC(=O)/C(=C/c3cccn3C)S2)c1C		inconclusive: 22.4 µM [falling, partial curve, poor fit]
CN(Cc1c(C(=O)N/N=C/c2cccc(O)c2)nnn1-c1nonc1N)c1ccccc1	inconclusive: -0.34%	
CCc1ccc(NCc2nc(-c3ccccc3)no2)cc1	inconclusive: 0.505%	
Fc1ccc(NC(=S)Nc2ccccc2N2CCOCC2)cc1Cl	inconclusive: 9.63%	
CCN(C(=O)CN1C(=O)S/C(=C\C=C\c2ccccc2)C1=O)C1CCS(=O)(=O)C1 (stereo not drawn)		inconclusive: 14.1 µM [falling, partial curve]
Cn1c2c(c(=O)n(C)c1=O)C(CC(=O)Nc1ccc(F)cc1)C(=O)N2 (stereo not drawn)		inconclusive: 0.501 µM [falling, partial curve, poor fit]
COc1ccc(S(=O)(=O)NCCc2c(C)nn(C)c2Oc2ccccc2)cc1	inactive: -2.04%	

Structures from the list above that contain a cyano group (2):
SMILES	activity change, negative = inhibition	Potency
Cc1nnc(SCCC#N)n(CCC#N)c1=O	inconclusive: 8.99%	
N#Cc1ccsc1NC(=O)CN1CCN(c2ccccc2)CC1	inconclusive: 12.3%	

Going on with the list.

SMILES	activity change, negative = inhibition	Potency
O=C(Nc1ccn(-c2ccccc2)n1)c1ccc(Cl)cc1	inconclusive: -0.572%	
O=C(Nc1ccc(Cl)cn1)C1CCCN(c2ncnc3c2nc2n3CCCCC2)C1 (stereo not drawn)	inconclusive: 3.7%	
CCC(c1nnnn1Cc1ccco1)N(CCc1ccccc1)Cc1cc2cc(C)ccc2[nH]c1=O (stereo not drawn)	inconclusive: -0.246%	
CCCC(=O)Nc1ccc(Br)c(Cl)c1	inconclusive: -1.81%	
O=C(CS(=O)(=O)c1cn(CC(=O)N2CCOCC2)c2ccccc12)Nc1ccccc1	inconclusive: -11.2%	
Nc1ccc2oc3ccc(N)cc3c(=O)c2c1		inconclusive: 14.6 µM [rising, partial curve]
COc1ccc(-c2nn(C)c(=O)c3ccccc23)cc1CNS(C)(=O)=O		active: 18.4 µM
Cc1cc2c(=O)n(C)c(SCC(=O)Nc3ccccc3)nc2s1	inactive: 7.43%	
CC(NCC1(N2CCOCC2)CCCCC1)C(=O)N1CCc2ccccc21 (stereo not drawn)	inconclusive: 12.3%	
COc1cc(OC)cc(C(=O)Nc2ccc(N(C)C)c3ccccc23)c1	inconclusive: 0.928%	
COC(=O)c1nnn(-c2cccc(Cl)c2)c1C(=O)OC	inconclusive: -2.83%	
CCCS/C(N)=N/N=C/c1ccccc1O		inconclusive: 20.6 µM [falling, partial curve]
N#Cc1cc2c(nc1SCC(=O)N1CCOCC1)CCCCC2		inconclusive: 14.6 µM [falling, partial curve]
CCCN=C(C)c1c(-c2ccccc2)[nH]n(-c2nc3ccccc3s2)c1=O	inconclusive: 18.2%	
Cc1ccc(NC(=O)c2cc(S(=O)(=O)N3CCCCC3)ccc2N2CCOCC2)cc1F	inactive: -1%	
COc1ccc2[nH]c(C(=O)Nc3cccc(C)n3)cc2c1		inconclusive: 35.5 µM [falling, single point]
CC1(C)Cc2c(cnn2-c2cccc(F)c2)C(NC(=O)c2csnn2)C1 (stereo not drawn)	inconclusive: 0.551%	
O=C(NCC1CC1)Nc1ccc(Cl)cc1	inconclusive: 0.232%	
COc1ccccc1/C=C(\C#N)C(=O)c1cccn1C	inconclusive: -9.53%	
COc1ccc(C(=O)N=S2CCN(C(=O)c3ccc(Cl)cc3)CC2)cc1	inactive: 11.3%	

At a glance, part of the list above:
SMILES	activity change, negative = inhibition	Potency
O=C(CS(=O)(=O)c1cn(CC(=O)N2CCOCC2)c2ccccc12)Nc1ccccc1	inconclusive: -11.2%	
Nc1ccc2oc3ccc(N)cc3c(=O)c2c1		inconclusive: 14.6 µM [rising, partial curve]
